{"source": "patent US9962360B2", "about": "“Compositions and methods for enhancing hair growth, promoting skin regeneration, and wound healing” (The Hospital for Sick Children, priority 2014, dated 2018)", "system": "SKPs", "test": "Transcriptome analysis of secondary SKP spheres from drug-treated skin", "conditions": "SKPs from drug-treated wounded skin, p<0.01"}
{"substance": "trimebutine maleate [TM]", "values": [{"measurement": "number of differentially expressed genes compared to control skin", "value": 291, "unit": "genes"}]}
